Results are given in words; binding and its absence hold for the method and conditions named. In cells and extracts the contact can be indirect. A yes stands for co-enrichment or nearness to the bait. Other partners may have been found. For some assays here: Where a sequence is shown, tags or fusion partners need not be part of it.

By UniProt entry, the sequences of proteins in these tests, tags left out.
UniProt P0AA53: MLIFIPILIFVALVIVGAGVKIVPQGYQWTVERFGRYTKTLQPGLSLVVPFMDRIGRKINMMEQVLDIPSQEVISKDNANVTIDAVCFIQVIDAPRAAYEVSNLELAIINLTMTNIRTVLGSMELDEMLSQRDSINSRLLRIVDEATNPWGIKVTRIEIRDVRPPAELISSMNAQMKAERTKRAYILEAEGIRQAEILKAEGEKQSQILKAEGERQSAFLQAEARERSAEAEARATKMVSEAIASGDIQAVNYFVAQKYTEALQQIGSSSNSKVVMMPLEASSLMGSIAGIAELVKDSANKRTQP
UniProt P0AAI3: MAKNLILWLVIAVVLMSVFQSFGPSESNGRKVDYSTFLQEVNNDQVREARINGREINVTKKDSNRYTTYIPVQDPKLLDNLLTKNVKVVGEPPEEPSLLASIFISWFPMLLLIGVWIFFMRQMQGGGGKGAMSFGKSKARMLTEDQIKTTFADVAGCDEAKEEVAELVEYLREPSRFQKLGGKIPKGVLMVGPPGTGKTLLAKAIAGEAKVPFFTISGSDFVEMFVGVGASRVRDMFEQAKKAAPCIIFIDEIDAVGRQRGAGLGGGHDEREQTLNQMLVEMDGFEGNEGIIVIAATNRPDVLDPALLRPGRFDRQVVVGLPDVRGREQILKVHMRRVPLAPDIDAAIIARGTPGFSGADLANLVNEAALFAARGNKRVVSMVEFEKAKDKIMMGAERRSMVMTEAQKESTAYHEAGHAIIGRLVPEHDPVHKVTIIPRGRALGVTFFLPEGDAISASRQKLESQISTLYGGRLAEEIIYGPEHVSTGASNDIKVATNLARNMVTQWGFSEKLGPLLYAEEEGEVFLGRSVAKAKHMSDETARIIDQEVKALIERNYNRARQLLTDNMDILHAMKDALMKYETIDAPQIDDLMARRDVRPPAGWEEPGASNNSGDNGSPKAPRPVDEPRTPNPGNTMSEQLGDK

For one assay, the target named is T1, YibN-SPA (E. coli) (UniProt P0AG27).
T1 sequence: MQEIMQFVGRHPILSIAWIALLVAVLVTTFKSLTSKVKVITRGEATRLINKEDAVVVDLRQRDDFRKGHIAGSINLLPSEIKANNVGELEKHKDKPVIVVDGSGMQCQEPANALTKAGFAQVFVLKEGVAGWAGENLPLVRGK
Put plainly: affinity purification with mass spectrometry.

The target in a further assay is T2, YidC-BirA* (E. coli) (UniProt P25714).
T2 sequence: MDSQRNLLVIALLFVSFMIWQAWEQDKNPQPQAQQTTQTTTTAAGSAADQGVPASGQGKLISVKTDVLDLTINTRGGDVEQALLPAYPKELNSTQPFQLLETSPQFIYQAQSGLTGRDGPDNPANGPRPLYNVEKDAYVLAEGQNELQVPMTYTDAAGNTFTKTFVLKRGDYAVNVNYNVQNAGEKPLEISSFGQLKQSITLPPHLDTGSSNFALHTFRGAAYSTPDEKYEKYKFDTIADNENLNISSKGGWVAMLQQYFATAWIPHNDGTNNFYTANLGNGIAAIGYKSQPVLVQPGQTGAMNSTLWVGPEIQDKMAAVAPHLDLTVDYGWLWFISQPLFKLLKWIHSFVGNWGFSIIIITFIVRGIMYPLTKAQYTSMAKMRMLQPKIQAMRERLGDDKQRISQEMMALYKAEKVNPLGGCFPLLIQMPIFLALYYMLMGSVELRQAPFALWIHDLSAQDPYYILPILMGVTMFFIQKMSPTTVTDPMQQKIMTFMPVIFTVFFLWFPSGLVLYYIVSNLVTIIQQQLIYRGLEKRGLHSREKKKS
Put plainly: proximity labelling.

Another assay addresses T3, YibN-His6 (E. coli) (UniProt P0AG27).
T3 sequence: T1 sequence
Put plainly: affinity purification with mass spectrometry.

Another assay has as its target T4, His6-YidC (E. coli, UniProt P25714 1-548).
T4 sequence (looked up): T2 sequence
Put plainly: affinity purification with mass spectrometry.

QmcA (from UniProt P0AA53 1-305): the binding result with YibN-SPA (E. coli) is “binds”.

Regarding FtsH (from UniProt P0AAI3 1-644), the binding result with YidC-BirA* (E. coli) is listed as “binds”.

B1: HflK (protein, UniProt P0ABC7 1-419)
chain: MAWNQPGNNGQDRDPWGSSKPGGNSEGNGNKGGRDQGPPDLDDIFRKLSKKLGGLGGGKGTGSGGGSSSQGPRPQLGGRVVTIAAAAIVIIWAASGFYTIKEAERGVVTRFGKFSHLVEPGLNWKPTFIDEVKPVNVEAVRELAASGVMLTSDENVVRVEMNVQYRVTNPEKYLYSVTSPDDSLRQATDSALRGVIGKYTMDRILTEGRTVIRSDTQRELEETIRPYDMGITLLDVNFQAARPPEEVKAAFDDAIAARENEQQYIREAEAYTNEVQPRANGQAQRILEEARAYKAQTILEAQGEVARFAKLLPEYKAAPEITRERLYIETMEKVLGNTRKVLVNDKGGNLMVLPLDQMLKGGNAPAAKSDNGASNLLRLPPASSSTTSGASNTSSTSQGDIMDQRRANAQRNDYQRQGE
On to B1, for which the binding entry in the assay with YidC-BirA* (E. coli) is “binds”.

B2: YgfX (protein, UniProt Q46824 1-135)
chain: MVLWQSDLRVSWRAQWLSLLIHGLVAAVILLMPWPLSYTPLWMVLLSLVVFDCVRSQRRINARQGEIRLLMDGRLRWQGQEWSIVKAPWMIKSGMMLRLRSDGGKRQHLWLAADSMDEAEWRDLRRILLQQETQR
In the case of B2, the binding result with YibN-SPA (E. coli) is listed as “binds”.

B3: GntR (protein, UniProt P0ACP5 1-331)
chain: MKKKRPVLQDVADRVGVTKMTVSRFLRNPEQVSVALRGKIAAALDELGYIPNRAPDILSNATSRAIGVLLPSLTNQVFAEVLRGIESVTDAHGYQTMLAHYGYKPEMEQERLESMLSWNIDGLILTERTHTPRTLKMIEVAGIPVVELMDSKSPCLDIAVGFDNFEAARQMTTAIIARGHRHIAYLGARLDERTIIKQKGYEQAMLDAGLVPYSVMVEQSSSYSSGIELIRQARREYPQLDGVFCTNDDLAVGAAFECQRLGLKVPDDMAIAGFHGHDIGQVMEPRLASVLTPRERMGSIGAERLLARIRGESVTPKMLDLGFTLSPGGSI
Turning to B3, in the assay with YibN-SPA (E. coli), the binding result is recorded as “binds”.

B4: YidC (endogenous) (protein, UniProt P25714 1-548)
chain: T2 sequence
Turning to B4, the binding entry with YibN-His6 (E. coli) and in the assay with YibN-SPA (E. coli) was “binds” each time.

B5: HflC (protein, UniProt P0ABC3 1-334)
chain: MRKSVIAIIIIVLVVLYMSVFVVKEGERGITLRFGKVLRDDDNKPLVYEPGLHFKIPFIETVKMLDARIQTMDNQADRFVTKEKKDLIVDSYIKWRISDFSRYYLATGGGDISQAEVLLKRKFSDRLRSEIGRLDVKDIVTDSRGRLTLEVRDALNSGSAGTEDEVTTPAADNAIAEAAERVTAETKGKVPVINPNSMAALGIEVVDVRIKQINLPTEVSEAIYNRMRAEREAVARRHRSQGQEEAEKLRATADYEVTRTLAEAERQGRIMRGEGDAEAAKLFADAFSKDPDFYAFIRSLRAYENSFSGNQDVMVMSPDSDFFRYMKTPTSATR
In the case of B5, the binding entry in the assay with YidC-BirA* (E. coli) is reported as “binds”.

B6: YajC (protein, UniProt P0ADZ7 1-110)
chain: MSFFISDAVAATGAPAQGSPMSLILMLVVFGLIFYFMILRPQQKRTKEHKKLMDSIAKGDEVLTNGGLVGRVTKVAENGYIAIALNDTTEVVIKRDFVAAVLPKGTMKAL
For the molecule B6, in the assay with YibN-SPA (E. coli), the binding entry is recorded as “binds”.

B7: YibN-His6 (natural protein, E. coli, UniProt P0AG27 1-143, looked up)
chain: T1 sequence
On to B7, for which the binding result with His6-YidC and in the assay with YidC-BirA* (E. coli) was “binds” each time.

Source of the values: article doi:10.1101/2024.12.13.628402 (bioRxiv, 2024).
